PubChem BioAssay AID1508597 | Cure First – 2020
Shown is an unselected part of the about 2,100 reagents, in one setting of the screen. 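Calls flag viability under 80% in either arm, not effects specific to rucaparib; the reference for percent is not stated.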 A reagent listed more than once was tested more than once; the source does not tell the runs apart. Reagent sequences are not shown. Not given: the 100% reference.

- Screen: 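Survival screen with siRNA in ovarian cancer cells derived from patients, with or without rucaparib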 (primary screen)
- Cells: human ovarian carcinoma lines grown from tumours: OCI-P5x (papillary serous) and OCI-C5x (clear cell)
- Knock-down reagent: siRNA pool against human genes, 1.25 pmol siRNA per well
- Timing: 72 h or 96 h, depending on the cell culture
- Challenge: rucaparib 20 µM (about IC30) or vehicle, present until read-out
- Rucaparib or vehicle: Rucaparib
- Cell line: OCI-P5x (serous)
- Measured: 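Luminescent ATP-based viability assay read 72 or 96 h after transfection, depending on culture, given as normalised percent viability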
- Scale: viability, normalised: higher = more viable cells remaining
- Rule for the call: 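a well counts as a hit if its normalised viability is under 80 percent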
- Calls: active = viability under 80%; inactive = viability 80% or more

no.	gene	PubChem SID	technical replicate	viability, normalised (%)	Outcome
1	RBBP4	SID405527231	1	52.9	active
2	RBBP4	SID405527231	2	58.6	active
3	RBBP4	SID405527231	3	54.2	active
4	MED10	SID405526985	1	71.2	active
5	MED10	SID405526985	2	69.8	active
6	MED10	SID405526985	3	80.1	inactive
7	IRAK2	SID405528536	1	120	inactive
8	IRAK2	SID405528536	2	86.8	inactive
9	IRAK2	SID405528536	3	77	active
10	ERCC8	SID405528400	1	76.5	active
11	ERCC8	SID405528400	2	96.7	inactive
12	ERCC8	SID405528400	3	79.2	active
13	STK10	SID405528576	1	53.9	active
14	STK10	SID405528576	2	51.8	active
15	STK10	SID405528576	3	75.6	active
16	CDX4	SID405528088	1	65.9	active
17	CDX4	SID405528088	2	68	active
18	CDX4	SID405528088	3	55.7	active
19	DCP2	SID405528166	1	67.9	active
20	DCP2	SID405528166	2	70.7	active
21	DCP2	SID405528166	3	72.2	active
22	PTTG3P	SID405527215	1	66.3	active
23	PTTG3P	SID405527215	2	46.6	active
24	PTTG3P	SID405527215	3	55.1	active
25	TRIB1	SID405526367	1	87.1	inactive
26	TRIB1	SID405526367	1	67.4	active
27	TRIB1	SID405526367	2	66.7	active
28	TRIB1	SID405526367	2	66.5	active
29	TRIB1	SID405526367	3	71.2	active
30	TRIB1	SID405526367	3	92.3	inactive
31	BAHD1	SID405528011	1	68.8	active
32	BAHD1	SID405528011	2	87.8	inactive
33	BAHD1	SID405528011	3	83.8	inactive
34	SUV39H1	SID405526345	1	66.3	active
35	SUV39H1	SID405526345	1	89.8	inactive
36	SUV39H1	SID405526345	2	92.3	inactive
37	SUV39H1	SID405526345	2	72.3	active
38	SUV39H1	SID405526345	3	87.2	inactive
39	SUV39H1	SID405526345	3	66.8	active
40	RBM10	SID405527237	1	41.4	active
41	RBM10	SID405527237	2	34.6	active
42	RBM10	SID405527237	3	55.6	active
43	KDM5D	SID405526940	1	50.8	active
44	KDM5D	SID405526940	2	54.3	active
45	KDM5D	SID405526940	3	55.9	active
46	ATRX	SID405528003	1	66.3	active
47	ATRX	SID405528003	1	78.8	active
48	ATRX	SID405528003	2	82.7	inactive
49	ATRX	SID405528003	2	74.1	active
50	ATRX	SID405528003	3	87.7	inactive
51	ATRX	SID405528003	3	77.6	active
52	MEMO1	SID405526731	1	50.9	active
53	MEMO1	SID405526731	2	53.3	active
54	MEMO1	SID405526731	3	49.4	active
55	TEAD4	SID405526550	1	68.6	active
56	TEAD4	SID405526550	2	67	active
57	TEAD4	SID405526550	3	62.3	active

Reprinted from the entries so far, 3 entries:
no.	gene	PubChem SID	technical replicate	viability, normalised (%)	Outcome
14	STK10	SID405528576	2	51.8	active
15	STK10	SID405528576	3	75.6	active
16	CDX4	SID405528088	1	65.9	active
